These are yes or no findings as the source states them, for the method shown. Some entries that bind do so weakly or less than the wild type.
Biological target: CSPG4, endogenous on HeLa cells (human (endogenous in HeLa)) (UniProt Q6UVK1)
Experiment: cell surface binding assay (immunoblot of cell lysates); only the binder purified

Protein sequences, listed by entry. Tags and fused reporters are not part of them. Residues count along the entry.
UniProt Q6UVK1, residues 30-2322: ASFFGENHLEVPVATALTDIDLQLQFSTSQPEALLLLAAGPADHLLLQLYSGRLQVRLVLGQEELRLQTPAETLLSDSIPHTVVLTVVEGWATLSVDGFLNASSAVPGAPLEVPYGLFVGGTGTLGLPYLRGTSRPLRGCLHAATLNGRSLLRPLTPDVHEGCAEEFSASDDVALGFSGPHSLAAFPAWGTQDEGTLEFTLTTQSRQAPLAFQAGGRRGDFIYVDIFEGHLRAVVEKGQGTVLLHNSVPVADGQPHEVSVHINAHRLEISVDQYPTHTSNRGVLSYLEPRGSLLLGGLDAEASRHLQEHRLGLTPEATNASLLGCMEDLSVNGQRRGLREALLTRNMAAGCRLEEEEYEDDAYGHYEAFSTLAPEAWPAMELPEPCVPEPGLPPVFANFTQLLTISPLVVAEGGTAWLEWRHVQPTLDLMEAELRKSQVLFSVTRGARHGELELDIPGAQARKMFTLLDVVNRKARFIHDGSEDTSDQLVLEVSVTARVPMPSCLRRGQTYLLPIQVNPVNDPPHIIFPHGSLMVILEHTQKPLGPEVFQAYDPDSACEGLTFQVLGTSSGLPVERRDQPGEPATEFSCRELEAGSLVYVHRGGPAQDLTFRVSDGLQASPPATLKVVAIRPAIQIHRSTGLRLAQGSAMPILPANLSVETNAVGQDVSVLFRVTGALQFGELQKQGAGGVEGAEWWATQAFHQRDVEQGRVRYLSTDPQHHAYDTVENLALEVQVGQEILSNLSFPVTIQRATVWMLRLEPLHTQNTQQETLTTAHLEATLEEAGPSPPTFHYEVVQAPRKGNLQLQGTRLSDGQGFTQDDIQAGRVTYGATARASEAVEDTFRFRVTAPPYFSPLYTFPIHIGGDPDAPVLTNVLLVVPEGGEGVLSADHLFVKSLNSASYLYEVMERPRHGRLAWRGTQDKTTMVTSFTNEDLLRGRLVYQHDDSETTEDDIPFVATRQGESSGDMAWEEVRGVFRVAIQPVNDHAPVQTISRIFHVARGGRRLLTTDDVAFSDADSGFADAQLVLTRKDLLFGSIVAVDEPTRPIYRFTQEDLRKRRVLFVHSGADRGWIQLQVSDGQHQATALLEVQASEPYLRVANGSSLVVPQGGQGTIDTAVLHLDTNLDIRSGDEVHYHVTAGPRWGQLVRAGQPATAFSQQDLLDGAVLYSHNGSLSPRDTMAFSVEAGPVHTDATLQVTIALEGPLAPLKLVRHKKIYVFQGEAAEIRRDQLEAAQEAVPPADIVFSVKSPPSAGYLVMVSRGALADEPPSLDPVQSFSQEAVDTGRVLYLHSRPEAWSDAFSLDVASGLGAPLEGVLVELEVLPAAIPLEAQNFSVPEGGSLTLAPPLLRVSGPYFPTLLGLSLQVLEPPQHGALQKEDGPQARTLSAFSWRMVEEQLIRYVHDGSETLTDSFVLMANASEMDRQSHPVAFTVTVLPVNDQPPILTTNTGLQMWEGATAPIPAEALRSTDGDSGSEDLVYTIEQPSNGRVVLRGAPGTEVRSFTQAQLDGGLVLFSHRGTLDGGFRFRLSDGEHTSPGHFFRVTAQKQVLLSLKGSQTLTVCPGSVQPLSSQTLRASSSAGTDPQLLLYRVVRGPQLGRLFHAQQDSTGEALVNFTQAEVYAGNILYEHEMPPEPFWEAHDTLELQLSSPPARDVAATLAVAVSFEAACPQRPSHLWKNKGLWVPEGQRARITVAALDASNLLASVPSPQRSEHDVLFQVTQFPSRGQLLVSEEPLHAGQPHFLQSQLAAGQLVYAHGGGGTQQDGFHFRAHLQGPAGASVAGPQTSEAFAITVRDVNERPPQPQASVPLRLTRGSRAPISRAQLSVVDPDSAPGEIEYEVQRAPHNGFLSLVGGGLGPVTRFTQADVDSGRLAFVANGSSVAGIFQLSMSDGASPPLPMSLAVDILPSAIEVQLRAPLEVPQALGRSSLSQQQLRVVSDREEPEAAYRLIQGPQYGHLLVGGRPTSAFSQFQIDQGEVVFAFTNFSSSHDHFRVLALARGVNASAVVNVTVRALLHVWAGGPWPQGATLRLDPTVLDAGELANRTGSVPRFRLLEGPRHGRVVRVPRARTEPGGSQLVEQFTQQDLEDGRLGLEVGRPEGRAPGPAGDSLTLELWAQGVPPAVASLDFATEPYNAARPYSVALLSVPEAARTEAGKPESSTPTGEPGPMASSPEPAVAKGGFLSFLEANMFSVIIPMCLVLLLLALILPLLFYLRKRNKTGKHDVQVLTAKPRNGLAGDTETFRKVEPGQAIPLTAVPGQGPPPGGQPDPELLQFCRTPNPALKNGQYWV
UniProt P18177: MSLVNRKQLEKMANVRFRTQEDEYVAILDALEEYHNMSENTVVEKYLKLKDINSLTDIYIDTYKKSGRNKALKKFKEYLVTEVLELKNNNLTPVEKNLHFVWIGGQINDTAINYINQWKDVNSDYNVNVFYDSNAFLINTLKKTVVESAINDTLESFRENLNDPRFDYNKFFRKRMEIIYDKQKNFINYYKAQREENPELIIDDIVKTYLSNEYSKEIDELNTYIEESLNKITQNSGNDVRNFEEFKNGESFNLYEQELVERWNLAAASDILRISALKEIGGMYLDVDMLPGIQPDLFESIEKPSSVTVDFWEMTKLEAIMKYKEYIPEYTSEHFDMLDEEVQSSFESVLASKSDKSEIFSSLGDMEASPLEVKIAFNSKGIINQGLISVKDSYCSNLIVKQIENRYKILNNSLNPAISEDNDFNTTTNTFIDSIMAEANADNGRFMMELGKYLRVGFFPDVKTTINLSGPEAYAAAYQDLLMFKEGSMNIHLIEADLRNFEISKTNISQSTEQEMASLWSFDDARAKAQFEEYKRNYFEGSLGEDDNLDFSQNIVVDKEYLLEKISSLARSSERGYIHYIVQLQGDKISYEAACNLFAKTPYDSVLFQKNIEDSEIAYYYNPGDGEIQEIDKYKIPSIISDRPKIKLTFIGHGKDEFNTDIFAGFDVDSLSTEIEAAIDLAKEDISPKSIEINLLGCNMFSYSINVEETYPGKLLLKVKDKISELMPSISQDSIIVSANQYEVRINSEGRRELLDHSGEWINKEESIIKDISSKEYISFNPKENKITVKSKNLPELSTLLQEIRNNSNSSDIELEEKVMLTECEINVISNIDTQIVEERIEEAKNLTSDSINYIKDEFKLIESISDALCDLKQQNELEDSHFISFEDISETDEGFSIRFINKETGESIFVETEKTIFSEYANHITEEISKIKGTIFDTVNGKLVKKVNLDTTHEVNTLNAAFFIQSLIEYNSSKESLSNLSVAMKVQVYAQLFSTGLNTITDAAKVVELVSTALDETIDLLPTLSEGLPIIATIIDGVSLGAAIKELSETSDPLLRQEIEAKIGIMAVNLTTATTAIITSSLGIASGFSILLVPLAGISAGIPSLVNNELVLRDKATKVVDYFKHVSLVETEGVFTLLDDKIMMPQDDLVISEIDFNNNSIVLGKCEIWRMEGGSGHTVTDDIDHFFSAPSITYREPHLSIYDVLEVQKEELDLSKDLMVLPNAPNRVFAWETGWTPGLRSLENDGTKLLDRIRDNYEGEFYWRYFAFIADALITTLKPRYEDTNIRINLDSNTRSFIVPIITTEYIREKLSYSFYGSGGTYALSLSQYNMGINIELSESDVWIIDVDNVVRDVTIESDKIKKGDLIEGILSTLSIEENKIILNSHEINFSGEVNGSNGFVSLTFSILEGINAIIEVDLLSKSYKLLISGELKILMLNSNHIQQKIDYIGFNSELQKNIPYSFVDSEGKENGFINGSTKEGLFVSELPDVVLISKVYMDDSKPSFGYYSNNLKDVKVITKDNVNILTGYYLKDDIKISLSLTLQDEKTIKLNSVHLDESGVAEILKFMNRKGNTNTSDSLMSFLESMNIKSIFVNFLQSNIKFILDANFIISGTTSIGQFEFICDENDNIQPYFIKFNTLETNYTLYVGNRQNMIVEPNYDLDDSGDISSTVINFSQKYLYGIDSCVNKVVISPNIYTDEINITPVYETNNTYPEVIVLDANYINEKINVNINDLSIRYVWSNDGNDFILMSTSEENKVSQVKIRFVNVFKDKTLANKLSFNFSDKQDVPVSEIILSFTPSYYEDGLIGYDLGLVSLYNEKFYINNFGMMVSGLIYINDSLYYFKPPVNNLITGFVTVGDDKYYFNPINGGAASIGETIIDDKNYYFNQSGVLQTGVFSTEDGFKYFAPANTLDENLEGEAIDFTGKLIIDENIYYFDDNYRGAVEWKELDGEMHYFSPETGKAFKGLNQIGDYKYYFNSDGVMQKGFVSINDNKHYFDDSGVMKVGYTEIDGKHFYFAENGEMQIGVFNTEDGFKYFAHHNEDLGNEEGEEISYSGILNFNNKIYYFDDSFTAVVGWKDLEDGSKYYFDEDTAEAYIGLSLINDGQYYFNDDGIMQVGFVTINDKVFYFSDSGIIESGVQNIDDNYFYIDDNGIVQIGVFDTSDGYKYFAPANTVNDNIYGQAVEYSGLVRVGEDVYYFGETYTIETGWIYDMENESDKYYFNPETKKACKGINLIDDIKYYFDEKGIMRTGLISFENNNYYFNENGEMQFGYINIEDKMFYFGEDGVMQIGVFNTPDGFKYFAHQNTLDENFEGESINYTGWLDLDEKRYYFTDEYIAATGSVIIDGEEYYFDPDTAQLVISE

## Twin-Strep tagged full-length wild-type TcdB1 (VPI10463 strain), from E. coli (from UniProt P18177 1-2366)
  binding: binds
